Laboratory results from paper PMC5365159.
Numbering of substitutions follows the chain as printed. Names may count otherwise. These are yes or no findings as the source states them, for the method shown. Some entries that bind do so weakly or less than the wild type. Where a sequence is shown, tags or fusion partners need not be part of it.

The chains behind the UniProt entries cited, without tags or fusion partners.
UniProt Q60974: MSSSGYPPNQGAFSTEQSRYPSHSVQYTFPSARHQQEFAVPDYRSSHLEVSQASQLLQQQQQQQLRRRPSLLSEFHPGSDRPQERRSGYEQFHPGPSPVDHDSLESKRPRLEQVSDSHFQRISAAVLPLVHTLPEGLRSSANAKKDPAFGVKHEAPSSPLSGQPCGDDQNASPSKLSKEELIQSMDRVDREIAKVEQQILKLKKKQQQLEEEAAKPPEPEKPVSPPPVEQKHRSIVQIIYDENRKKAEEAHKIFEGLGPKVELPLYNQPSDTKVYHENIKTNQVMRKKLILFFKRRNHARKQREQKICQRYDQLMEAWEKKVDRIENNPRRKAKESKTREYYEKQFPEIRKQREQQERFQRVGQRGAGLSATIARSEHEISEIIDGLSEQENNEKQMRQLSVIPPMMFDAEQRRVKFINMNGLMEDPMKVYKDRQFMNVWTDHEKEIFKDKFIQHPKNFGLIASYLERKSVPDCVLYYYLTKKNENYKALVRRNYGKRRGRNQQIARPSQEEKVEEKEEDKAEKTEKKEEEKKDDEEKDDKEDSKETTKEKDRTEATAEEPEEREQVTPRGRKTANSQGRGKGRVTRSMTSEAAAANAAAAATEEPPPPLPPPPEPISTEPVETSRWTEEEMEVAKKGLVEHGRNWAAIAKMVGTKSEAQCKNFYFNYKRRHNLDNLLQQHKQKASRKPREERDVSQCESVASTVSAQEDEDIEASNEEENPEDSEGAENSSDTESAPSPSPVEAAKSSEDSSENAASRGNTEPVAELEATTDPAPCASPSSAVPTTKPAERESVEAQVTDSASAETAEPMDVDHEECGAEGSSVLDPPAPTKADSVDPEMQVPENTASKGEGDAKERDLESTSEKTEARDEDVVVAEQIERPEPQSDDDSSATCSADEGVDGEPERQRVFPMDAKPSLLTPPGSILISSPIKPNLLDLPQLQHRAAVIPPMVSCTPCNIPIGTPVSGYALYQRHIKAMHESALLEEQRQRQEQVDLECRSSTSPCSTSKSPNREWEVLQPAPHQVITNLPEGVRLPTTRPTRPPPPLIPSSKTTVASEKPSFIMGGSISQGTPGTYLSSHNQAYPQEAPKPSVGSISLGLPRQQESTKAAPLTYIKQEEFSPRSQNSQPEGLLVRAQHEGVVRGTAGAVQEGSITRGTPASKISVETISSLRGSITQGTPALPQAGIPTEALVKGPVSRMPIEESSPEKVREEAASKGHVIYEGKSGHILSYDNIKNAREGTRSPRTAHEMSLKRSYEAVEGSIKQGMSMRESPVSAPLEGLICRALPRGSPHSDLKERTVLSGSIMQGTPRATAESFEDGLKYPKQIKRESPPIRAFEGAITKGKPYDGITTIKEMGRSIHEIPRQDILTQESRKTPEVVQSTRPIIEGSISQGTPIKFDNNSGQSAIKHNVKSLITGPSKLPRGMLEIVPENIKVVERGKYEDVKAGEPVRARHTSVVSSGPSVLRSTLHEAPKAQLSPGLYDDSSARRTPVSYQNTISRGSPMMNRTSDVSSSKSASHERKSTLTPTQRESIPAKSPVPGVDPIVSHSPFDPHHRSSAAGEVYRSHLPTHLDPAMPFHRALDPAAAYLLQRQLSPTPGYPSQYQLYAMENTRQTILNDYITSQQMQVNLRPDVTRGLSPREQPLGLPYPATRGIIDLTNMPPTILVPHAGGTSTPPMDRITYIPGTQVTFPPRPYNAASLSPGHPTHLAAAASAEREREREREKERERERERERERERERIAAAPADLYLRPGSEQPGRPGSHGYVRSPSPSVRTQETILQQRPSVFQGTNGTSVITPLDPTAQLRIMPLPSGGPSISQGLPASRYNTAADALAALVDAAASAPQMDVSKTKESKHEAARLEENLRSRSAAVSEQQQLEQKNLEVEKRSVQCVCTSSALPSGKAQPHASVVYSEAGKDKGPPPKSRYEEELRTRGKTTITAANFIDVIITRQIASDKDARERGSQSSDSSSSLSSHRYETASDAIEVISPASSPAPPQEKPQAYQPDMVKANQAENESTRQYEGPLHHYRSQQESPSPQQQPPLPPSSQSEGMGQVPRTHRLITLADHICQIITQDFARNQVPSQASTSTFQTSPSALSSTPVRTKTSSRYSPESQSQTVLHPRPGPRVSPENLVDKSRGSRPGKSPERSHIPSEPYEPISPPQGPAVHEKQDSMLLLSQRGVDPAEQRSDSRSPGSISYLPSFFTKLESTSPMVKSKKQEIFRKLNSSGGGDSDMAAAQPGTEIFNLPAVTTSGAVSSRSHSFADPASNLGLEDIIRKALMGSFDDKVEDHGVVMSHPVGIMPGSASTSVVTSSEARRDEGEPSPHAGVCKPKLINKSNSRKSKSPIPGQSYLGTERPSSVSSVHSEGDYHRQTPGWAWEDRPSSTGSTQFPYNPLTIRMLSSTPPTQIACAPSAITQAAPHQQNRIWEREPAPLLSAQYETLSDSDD
UniProt P19793: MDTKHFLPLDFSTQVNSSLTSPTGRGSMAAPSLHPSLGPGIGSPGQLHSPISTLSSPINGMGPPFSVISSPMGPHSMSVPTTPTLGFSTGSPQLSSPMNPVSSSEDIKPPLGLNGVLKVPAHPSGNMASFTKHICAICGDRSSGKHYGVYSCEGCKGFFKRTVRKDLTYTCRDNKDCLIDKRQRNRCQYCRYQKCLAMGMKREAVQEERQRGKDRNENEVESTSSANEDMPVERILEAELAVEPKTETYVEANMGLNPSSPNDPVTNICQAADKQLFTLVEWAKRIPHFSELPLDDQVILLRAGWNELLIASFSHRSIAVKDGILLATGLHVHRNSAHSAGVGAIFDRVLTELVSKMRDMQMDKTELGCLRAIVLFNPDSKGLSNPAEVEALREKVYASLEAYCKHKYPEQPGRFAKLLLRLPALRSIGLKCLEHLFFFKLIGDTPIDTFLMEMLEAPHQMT
UniProt Q61026: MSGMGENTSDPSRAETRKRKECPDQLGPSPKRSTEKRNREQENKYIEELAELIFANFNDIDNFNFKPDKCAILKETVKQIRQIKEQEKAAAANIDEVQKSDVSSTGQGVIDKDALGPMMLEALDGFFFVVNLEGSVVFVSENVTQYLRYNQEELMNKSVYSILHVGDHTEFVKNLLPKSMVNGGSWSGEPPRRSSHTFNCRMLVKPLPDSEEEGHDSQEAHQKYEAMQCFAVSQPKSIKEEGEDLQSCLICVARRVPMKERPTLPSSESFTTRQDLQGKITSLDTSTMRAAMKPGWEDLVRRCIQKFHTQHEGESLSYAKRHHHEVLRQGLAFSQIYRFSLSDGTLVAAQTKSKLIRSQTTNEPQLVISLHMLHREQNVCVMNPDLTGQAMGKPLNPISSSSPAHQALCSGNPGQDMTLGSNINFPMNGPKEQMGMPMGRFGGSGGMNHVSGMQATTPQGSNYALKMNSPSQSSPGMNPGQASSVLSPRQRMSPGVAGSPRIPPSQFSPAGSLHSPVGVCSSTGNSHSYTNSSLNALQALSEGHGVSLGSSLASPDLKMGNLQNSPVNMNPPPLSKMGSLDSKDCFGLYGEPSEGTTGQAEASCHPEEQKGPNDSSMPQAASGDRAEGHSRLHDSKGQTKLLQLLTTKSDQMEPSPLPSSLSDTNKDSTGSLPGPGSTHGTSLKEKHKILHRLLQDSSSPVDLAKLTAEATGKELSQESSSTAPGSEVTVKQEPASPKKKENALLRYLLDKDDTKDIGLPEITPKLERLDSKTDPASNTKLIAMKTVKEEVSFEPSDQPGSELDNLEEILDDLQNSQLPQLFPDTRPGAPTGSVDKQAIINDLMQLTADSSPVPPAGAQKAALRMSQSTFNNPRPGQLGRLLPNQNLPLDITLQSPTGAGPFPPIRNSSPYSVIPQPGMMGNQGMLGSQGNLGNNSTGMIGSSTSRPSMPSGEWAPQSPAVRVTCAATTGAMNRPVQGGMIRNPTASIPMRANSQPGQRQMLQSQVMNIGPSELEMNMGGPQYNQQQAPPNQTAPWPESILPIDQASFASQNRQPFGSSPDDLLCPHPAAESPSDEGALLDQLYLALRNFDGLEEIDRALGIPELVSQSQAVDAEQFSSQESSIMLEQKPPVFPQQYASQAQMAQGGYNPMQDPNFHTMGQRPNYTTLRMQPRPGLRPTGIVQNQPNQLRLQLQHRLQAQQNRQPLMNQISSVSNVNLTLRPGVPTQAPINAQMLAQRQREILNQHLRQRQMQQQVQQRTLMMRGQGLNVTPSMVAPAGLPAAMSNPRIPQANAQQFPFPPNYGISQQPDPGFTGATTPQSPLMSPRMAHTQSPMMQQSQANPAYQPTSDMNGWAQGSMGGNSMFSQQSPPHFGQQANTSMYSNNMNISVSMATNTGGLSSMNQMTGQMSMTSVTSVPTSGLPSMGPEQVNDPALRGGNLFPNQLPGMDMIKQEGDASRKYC

What was measured:
Test in all cases: two-hybrid; mammalian two-hybrid in HEK293 cells: VDR-VP16 with cofactor-GAL4 and the MH100(UAS)x4-tk-LUC reporter; cells treated with vehicle or increasing concentrations of 1,25(OH)2D3; luciferase normalised to β-galactosidase
[1] = target: corepressor NCoR, GAL4 fusion (NCoR-GAL4-pCMX) (UniProt Q60974)
[2] = target: retinoid X receptor alpha, GAL4 fusion (RXRα-GAL4-pCMX) (human) (UniProt P19793)
[3] = target: coactivator GRIP1, GAL4 fusion (GRIP1-GAL4-pCMX) (UniProt Q61026)

Measured: binding

B1: wild-type human vitamin D receptor, VP16 fusion (hVDR-VP16-pCMX) (receptor, UniProt P11473 1-427)
chain: MEAMAASTSLPDPGDFDRNVPRICGVCGDRATGFHFNAMTCEGCKGFFRRSMKRKALFTCPFNGDCRITKDNRRHCQACRLKRCVDIGMMKEFILTDEEVQRKREMILKRKEEEALKDSLRPKLSEEQQRIIAILLDAHHKTYDPTYSDFCQFRPPVRVNDGGGSHPSRPNSRHTPSFSGDSSSSCSDHCITSSDMMDSSSFSNLDLSEEDSDDPSVTLELSQLSMLPHLADLVSYSIQKVIGFAKMIPGFRDLTSEDQIVLLKSSAIEVIMLRSNESFTMDDMSWTCGNQDYKYRVSDVTKAGHSLELIEPLIKFQVGLKKLNLHEEEHVLLMAICIVSPDRPGVQDAALIEAIQDRLSNTLQTYIRCRHPPPGSHLLYAKMIQKLADLRSLNEEHSKQYRCLSFQPECSMKLTPLVLEVFGNEIS
binds: all assays above

B2: R370H-VDR, VP16 fusion (receptor, UniProt P11473 1-427)
chain: B1 chain with R370H
binds: all assays above
